# Data taken from patent EP0427427A2, “Use of arylalkylamides in the treatment of neurodegenerative diseases” (FISONS CORPORATION, priority 1989, dated 1991).
# System: Dogs
# Test: Global ischemia (clamping the ascending aorta), protection of CA1 neurons
# Conditions: iv
structure (smiles),measurement,setting,value
"NCC(=O)NC(Cc1ccccc1)c1ccccc1 (centres unmarked) [Compound B, 2-amino-N-(1,2-diphenylethyl)acetamide]",therapeutic range (convulsive index),toxic dose for convulsions / active dose,about 8.8
same,therapeutic range (preictal behavioural index),toxic dose for preictal behaviour / active dose,about 8.8
